From article doi:10.1101/2024.08.27.609892 come the findings set out here.

By UniProt entry, the sequences of proteins in these tests, tags left out.
UniProt P12004: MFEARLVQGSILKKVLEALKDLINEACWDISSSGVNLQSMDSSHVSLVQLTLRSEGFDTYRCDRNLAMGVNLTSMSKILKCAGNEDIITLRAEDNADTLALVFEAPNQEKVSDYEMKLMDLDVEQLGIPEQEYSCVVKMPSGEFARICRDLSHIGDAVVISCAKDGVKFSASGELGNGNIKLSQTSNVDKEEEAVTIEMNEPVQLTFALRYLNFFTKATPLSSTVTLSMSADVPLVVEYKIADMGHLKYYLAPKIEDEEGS

One test addresses T1, His labeled ANLN (human) (UniProt Q9NQW6).
T1 sequence: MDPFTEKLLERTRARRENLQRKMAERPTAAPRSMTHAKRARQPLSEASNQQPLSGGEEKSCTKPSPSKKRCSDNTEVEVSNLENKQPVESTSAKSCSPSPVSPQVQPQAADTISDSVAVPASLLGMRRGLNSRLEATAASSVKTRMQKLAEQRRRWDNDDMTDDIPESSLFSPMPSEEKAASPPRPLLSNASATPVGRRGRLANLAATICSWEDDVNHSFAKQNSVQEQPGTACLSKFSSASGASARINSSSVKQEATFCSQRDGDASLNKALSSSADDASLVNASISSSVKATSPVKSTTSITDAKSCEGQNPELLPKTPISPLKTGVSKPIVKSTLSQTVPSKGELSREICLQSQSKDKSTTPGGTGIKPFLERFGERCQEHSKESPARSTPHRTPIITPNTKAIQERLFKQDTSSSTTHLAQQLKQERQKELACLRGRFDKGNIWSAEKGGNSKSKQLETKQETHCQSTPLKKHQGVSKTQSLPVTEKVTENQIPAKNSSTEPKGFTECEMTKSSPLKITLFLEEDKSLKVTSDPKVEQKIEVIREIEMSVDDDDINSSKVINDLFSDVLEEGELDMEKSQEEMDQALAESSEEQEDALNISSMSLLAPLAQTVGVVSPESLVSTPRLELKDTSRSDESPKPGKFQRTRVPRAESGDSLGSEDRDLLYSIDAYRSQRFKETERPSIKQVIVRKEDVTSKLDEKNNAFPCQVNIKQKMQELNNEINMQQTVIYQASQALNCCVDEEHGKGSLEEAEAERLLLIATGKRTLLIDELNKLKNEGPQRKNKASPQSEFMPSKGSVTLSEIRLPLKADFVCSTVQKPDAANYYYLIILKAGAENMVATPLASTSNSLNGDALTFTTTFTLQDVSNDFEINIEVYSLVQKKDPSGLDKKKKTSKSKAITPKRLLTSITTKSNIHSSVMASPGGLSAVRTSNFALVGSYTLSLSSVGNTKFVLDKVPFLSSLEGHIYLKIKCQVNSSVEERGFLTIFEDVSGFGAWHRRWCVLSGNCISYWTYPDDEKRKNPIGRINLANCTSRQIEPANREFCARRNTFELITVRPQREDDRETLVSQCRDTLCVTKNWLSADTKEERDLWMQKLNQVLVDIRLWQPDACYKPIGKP
The test is described as follows: pull-down.

Test [1] deals with T2, endogenous ANLN (Anillin) (human (endogenous in KYSE150 and KYSE510)) (UniProt Q9NQW6).
T2 sequence: T1 sequence
Description: proximity ligation.

Test [2] addresses T2, endogenous ANLN (Anillin) (human (endogenous in KYSE150 and KYSE510)). The test is described as follows: co-IP.
For test [3], the target named is T3, ANLN N-terminal 1-454 region (human) (UniProt Q9NQW6).
T3 sequence: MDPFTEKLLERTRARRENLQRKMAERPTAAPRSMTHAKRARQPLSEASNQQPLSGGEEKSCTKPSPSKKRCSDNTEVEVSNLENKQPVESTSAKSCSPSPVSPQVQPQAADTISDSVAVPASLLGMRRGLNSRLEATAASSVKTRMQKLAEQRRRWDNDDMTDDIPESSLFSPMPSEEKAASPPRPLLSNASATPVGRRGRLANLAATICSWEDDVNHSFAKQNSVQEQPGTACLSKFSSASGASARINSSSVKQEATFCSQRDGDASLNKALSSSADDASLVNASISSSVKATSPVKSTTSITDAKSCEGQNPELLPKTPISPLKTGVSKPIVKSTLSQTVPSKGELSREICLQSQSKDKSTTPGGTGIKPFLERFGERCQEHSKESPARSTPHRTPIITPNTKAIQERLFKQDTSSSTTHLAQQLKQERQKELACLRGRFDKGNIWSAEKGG
The test is described as follows: co-IP.

In test [4] the target is T4, HA-ANLN (Anillin, wild type) (human) (UniProt Q9NQW6).
T4 sequence: T1 sequence
The test is described as follows: co-IP.

Test [5] concerns the target T5, ANLN C-terminal 454-1124 region (human) (UniProt Q9NQW6).
T5 sequence: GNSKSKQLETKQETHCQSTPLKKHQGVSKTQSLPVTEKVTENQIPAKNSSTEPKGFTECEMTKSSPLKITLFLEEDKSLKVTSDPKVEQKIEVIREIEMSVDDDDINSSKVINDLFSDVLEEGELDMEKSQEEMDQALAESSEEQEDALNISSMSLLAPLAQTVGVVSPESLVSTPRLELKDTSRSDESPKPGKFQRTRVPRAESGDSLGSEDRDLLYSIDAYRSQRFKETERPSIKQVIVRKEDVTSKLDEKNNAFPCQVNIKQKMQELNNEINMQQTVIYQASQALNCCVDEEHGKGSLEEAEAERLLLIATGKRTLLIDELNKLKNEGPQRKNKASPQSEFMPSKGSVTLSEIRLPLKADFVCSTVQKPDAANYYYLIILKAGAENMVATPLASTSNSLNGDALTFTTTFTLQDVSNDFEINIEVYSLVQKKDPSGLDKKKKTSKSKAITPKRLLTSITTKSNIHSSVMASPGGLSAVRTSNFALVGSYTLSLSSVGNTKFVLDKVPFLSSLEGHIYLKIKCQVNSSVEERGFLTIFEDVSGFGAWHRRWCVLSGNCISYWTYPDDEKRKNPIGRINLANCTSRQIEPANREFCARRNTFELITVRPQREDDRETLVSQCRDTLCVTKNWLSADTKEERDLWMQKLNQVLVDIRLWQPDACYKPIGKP
The test is described as follows: co-IP.

These are yes or no findings as the source states them, for the method shown. For part of these data: Binding seen in cells or lysates may run through a third protein. Some results given as binding are weak or reduced against the parent protein; the word gives no strength. For part of these data: Sequences can lack the tags named with a protein.

Consider “PCNA without label (from UniProt P12004 1-261)”, for which the binding result with His labeled ANLN (human) is listed as “binds”.
For “endogenous PCNA (proliferating cell nuclear antigen) (from UniProt P12004 1-261)”, the binding result in test [1] and in test [2] was “binds” each time.
As to Flag-PCNA (from UniProt P12004 1-261), the binding result is reported as “binds” in test [3], “binds” in test [4] and “no binding” in test [5].
